No constants are given. Whether binding was seen depends on the method and setting. Binding seen in cells or lysates may run through a third protein. Some results given as binding are weak or reduced against the parent protein; the word gives no strength.
Target: cell-surface receptor CD91 (human (endogenous in PANC-1)) (UniProt Q07954)
Test: proximity ligation; PANC-1 cells in 0.5% serum medium treated 24 h with PBS or 15 μg/mL rHSP90α, without or with 10 μg/mL control IgG, Clone-2 or Clone-6 antibody; fixed with 3% paraformaldehyde; anti-CD91 plus anti-HSP90α antibodies, Duolink in situ PLA kit; only the binder purified

By UniProt entry, the sequences of proteins in these tests, tags left out. Residues count along the entry.
UniProt Q07954, residues 20-4544: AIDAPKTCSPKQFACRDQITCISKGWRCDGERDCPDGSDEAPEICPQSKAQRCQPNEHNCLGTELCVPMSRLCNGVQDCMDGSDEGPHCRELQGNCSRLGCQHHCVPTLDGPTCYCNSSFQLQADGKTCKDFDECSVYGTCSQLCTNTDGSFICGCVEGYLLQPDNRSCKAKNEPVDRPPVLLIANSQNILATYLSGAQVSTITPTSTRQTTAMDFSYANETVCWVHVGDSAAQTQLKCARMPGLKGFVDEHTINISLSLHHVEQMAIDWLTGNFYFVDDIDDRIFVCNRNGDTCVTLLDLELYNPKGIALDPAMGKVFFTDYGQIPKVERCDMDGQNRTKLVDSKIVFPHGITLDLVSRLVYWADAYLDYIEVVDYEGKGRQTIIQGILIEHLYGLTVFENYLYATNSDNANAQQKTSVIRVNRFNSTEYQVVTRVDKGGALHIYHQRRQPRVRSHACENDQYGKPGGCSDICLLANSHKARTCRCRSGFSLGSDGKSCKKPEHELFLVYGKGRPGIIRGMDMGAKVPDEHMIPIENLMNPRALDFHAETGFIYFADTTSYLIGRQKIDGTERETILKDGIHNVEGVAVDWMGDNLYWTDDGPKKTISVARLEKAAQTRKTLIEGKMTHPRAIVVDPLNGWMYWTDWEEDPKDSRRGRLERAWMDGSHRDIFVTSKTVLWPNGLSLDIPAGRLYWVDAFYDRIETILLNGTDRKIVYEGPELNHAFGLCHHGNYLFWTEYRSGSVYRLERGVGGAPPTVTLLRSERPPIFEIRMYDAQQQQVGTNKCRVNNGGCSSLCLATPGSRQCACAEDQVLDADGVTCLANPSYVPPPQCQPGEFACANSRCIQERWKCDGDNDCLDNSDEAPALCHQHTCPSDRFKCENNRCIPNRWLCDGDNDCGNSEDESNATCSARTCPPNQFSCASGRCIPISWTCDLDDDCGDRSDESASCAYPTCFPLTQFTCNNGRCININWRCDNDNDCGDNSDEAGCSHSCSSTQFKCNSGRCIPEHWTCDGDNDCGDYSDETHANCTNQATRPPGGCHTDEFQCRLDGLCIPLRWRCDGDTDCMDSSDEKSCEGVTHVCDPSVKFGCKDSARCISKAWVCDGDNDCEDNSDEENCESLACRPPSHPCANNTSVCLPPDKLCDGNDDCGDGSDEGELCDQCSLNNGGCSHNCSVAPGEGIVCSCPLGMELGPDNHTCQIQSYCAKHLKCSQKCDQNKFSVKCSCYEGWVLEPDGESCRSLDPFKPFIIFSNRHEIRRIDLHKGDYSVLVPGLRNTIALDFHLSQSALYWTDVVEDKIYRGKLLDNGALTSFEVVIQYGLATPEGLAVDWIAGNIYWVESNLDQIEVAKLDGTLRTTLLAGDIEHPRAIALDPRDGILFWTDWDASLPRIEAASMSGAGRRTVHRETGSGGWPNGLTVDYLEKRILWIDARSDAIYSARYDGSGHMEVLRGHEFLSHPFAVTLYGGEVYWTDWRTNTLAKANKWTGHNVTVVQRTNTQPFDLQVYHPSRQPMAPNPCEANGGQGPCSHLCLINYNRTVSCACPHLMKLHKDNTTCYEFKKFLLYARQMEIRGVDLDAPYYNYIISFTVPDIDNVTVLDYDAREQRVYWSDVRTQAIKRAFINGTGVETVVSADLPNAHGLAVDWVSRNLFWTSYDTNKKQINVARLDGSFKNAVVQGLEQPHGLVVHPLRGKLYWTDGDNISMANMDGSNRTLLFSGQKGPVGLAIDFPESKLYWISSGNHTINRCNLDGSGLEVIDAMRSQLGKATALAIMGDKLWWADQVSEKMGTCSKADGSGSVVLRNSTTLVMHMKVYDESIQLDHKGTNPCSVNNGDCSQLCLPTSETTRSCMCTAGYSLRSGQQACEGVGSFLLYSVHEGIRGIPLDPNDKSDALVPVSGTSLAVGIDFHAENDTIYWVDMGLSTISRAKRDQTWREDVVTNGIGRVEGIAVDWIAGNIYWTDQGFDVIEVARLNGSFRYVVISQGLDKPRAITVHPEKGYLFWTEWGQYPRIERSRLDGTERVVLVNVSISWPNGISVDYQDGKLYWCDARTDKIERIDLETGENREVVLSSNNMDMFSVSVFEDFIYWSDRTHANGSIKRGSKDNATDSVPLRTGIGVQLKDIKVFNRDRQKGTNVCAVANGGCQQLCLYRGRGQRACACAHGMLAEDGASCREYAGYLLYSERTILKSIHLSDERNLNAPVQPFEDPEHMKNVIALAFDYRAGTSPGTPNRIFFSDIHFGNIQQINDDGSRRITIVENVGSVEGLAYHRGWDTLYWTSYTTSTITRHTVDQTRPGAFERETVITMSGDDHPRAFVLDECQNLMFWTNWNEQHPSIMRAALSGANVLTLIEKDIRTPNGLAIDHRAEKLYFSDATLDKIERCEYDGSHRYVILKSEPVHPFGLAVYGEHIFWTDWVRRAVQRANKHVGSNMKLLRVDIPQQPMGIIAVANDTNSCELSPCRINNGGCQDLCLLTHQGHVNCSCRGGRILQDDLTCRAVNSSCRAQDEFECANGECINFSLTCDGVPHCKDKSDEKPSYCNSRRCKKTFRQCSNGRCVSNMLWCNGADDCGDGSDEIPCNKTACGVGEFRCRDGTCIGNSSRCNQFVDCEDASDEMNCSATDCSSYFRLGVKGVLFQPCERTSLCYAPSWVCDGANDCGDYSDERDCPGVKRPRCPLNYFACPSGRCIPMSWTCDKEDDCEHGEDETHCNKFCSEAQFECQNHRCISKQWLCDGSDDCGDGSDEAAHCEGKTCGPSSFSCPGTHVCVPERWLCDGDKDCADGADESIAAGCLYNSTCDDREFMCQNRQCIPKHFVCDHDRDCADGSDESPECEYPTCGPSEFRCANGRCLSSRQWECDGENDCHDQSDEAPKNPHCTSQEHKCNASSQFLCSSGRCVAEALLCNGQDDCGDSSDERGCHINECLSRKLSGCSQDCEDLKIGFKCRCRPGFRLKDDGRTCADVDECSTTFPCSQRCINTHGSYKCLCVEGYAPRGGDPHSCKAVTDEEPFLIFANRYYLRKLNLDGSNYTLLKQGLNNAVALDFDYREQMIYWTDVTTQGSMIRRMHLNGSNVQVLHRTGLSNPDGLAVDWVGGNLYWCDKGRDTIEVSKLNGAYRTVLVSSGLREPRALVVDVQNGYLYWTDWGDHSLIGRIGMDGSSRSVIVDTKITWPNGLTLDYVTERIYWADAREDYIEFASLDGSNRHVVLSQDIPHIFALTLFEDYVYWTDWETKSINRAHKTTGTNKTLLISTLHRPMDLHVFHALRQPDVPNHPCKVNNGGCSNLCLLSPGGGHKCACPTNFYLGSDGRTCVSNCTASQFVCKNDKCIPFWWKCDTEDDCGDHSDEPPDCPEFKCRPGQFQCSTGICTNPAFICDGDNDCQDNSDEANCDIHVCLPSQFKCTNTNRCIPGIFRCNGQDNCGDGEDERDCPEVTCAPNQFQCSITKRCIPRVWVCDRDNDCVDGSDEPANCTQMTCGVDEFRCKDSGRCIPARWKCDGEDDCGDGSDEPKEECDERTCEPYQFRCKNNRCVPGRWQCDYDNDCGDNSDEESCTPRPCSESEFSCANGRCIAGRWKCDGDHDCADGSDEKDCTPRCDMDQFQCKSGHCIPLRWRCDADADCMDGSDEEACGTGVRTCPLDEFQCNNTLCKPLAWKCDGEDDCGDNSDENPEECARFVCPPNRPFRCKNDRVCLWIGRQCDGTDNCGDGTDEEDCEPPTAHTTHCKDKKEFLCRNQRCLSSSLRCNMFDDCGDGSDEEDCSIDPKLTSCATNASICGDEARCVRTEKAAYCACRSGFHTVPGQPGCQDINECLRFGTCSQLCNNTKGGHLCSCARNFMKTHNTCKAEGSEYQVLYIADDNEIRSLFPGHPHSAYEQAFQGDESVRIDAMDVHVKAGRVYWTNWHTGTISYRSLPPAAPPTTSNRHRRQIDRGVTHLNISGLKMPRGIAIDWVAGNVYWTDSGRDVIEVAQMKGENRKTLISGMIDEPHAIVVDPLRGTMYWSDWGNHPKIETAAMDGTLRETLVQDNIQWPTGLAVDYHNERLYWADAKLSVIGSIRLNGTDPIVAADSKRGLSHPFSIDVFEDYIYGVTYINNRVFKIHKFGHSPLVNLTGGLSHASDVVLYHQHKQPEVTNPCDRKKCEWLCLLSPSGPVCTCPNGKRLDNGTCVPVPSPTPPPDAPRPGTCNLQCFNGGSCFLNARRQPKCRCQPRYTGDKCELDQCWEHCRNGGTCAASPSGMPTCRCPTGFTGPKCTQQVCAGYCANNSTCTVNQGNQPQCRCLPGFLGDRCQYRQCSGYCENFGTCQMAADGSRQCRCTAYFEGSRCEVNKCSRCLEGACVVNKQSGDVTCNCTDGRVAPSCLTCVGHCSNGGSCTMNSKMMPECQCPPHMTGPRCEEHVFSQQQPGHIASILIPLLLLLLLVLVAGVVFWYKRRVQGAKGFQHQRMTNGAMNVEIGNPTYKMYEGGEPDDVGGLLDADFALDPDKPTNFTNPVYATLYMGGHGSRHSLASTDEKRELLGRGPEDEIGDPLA

- binding: binds
Substance: recombinant 732-a.a. full-length human HSP90α (from UniProt P07900 1-732)

Reference: paper PMC11240389
